# No constants are given. Whether binding was seen depends on the method and setting. Binding calls can cover weak binding; strength is not graded here.
# Amino acid sequences for entries named in this document (tags omitted).
# UniProt E2JF22: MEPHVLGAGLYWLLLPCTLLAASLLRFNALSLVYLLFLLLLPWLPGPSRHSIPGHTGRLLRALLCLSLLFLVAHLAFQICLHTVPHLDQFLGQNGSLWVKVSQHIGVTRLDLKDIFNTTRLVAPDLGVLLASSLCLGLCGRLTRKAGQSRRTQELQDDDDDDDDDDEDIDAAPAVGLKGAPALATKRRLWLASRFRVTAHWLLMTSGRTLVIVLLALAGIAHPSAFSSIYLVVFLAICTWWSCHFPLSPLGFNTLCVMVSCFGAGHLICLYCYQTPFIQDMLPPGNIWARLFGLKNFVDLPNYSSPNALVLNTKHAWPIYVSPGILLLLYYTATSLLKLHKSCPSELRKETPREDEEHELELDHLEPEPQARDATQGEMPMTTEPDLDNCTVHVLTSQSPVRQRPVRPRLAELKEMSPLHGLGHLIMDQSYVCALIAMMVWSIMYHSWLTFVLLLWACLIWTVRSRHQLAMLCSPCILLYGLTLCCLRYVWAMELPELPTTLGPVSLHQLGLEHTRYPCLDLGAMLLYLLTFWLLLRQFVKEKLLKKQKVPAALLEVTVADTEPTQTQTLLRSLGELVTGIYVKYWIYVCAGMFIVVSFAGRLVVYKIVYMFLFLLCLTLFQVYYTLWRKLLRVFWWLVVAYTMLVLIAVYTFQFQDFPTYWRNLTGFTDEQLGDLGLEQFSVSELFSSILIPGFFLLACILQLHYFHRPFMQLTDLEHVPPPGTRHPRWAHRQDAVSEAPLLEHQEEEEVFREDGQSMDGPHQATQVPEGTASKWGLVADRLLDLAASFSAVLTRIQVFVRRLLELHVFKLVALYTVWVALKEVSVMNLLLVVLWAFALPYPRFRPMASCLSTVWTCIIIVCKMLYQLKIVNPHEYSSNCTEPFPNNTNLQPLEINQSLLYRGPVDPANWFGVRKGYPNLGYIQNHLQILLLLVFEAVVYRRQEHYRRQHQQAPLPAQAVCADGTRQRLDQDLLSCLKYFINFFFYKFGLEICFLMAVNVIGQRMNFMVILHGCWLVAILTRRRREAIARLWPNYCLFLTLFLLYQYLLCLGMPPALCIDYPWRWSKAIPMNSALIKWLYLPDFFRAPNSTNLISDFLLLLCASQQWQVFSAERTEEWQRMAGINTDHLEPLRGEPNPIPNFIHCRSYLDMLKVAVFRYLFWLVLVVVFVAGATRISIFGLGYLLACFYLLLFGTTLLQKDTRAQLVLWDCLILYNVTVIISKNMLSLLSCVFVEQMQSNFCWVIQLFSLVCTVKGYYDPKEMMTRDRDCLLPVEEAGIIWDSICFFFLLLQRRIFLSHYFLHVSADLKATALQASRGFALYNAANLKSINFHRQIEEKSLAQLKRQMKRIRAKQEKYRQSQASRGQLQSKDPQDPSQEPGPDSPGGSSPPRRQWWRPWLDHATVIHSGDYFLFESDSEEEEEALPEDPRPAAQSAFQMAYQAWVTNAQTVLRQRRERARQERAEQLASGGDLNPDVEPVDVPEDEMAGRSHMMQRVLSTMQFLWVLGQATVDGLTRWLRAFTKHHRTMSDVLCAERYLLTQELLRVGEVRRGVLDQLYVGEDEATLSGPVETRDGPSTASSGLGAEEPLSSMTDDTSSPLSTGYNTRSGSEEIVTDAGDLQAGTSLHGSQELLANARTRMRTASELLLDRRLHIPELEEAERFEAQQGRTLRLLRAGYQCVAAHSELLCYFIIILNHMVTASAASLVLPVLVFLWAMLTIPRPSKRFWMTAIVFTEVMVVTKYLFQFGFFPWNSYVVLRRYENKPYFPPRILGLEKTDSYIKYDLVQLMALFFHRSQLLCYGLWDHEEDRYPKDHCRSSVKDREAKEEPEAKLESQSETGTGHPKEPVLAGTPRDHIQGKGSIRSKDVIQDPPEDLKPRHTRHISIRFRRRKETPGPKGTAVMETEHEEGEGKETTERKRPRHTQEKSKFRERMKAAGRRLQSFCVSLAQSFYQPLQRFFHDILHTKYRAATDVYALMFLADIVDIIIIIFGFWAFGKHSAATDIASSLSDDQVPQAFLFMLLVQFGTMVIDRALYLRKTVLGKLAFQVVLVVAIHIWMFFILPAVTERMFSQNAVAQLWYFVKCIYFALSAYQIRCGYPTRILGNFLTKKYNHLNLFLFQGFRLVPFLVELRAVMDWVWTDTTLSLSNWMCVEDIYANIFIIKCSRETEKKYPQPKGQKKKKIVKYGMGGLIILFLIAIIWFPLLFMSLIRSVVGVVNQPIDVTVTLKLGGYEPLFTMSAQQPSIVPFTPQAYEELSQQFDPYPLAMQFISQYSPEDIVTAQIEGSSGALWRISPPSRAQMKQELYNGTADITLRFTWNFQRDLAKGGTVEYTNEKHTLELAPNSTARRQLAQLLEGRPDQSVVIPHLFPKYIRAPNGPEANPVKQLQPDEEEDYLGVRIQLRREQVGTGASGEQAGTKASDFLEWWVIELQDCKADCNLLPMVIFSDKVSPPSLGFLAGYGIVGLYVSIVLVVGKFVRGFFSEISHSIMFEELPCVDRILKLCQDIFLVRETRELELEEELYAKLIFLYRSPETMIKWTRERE
# Target: mouse PIEZO1 in the cryo-EM complex with mouse MDFI (mouse) (UniProt E2JF22)
# Experiment: cryo-EM structure
substance,measurement,value
mouse MDFI in the cryo-EM complex with mouse PIEZO1 (from UniProt P70331-2),binding,binds

# — publication doi:10.1101/2025.10.26.684595
